In the supplement of paper PMC10849652:
The list shows a part of the results.

Chains of the proteins cited; added tags and fusions are not shown. Lines headed by an entry give the natural chain unless they say otherwise; changes in a name come on top.
UniProt Q9ULX6: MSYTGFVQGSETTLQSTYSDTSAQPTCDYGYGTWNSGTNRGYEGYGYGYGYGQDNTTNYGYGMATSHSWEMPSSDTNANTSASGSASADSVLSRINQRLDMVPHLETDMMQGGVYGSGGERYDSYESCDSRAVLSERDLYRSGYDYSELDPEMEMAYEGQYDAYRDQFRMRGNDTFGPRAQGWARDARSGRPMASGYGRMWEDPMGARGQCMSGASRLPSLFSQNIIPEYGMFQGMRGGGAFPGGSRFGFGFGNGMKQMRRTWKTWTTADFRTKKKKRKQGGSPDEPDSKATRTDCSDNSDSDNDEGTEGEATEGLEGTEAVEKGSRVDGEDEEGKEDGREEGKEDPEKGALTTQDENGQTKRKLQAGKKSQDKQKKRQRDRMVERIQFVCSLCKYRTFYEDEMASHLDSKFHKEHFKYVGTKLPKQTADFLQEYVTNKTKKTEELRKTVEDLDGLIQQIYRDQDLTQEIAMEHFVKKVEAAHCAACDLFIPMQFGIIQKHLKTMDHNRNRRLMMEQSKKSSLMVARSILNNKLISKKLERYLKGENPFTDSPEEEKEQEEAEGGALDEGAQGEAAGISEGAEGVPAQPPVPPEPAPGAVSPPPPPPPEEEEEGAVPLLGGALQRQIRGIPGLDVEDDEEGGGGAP
UniProt Q9UEY8: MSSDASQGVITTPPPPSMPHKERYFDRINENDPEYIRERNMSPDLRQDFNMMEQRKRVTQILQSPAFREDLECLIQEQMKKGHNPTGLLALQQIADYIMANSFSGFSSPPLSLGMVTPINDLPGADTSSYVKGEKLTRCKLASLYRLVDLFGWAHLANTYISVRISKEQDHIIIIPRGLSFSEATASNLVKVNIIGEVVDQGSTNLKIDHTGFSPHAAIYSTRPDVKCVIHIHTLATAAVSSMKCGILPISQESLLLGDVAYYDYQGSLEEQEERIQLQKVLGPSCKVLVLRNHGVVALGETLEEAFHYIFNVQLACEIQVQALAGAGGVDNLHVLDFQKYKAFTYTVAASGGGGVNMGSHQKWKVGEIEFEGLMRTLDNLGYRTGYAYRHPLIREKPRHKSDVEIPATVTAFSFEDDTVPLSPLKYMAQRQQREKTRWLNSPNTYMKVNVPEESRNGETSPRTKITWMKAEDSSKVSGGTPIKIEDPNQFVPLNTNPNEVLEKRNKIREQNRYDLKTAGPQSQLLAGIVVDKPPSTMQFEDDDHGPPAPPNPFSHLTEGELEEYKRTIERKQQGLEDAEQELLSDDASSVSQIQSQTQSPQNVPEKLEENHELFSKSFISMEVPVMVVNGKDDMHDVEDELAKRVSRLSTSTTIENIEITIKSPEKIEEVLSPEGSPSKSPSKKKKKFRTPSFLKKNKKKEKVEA
UniProt Q96BJ3: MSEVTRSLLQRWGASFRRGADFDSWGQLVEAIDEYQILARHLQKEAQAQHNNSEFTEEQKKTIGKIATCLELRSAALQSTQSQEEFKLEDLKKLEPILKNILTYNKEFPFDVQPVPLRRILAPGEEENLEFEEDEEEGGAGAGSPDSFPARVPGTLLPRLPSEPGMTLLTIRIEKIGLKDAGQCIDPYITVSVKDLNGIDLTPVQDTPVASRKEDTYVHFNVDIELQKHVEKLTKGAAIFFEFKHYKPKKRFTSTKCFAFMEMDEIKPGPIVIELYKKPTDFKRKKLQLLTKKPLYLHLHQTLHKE
UniProt Q9GZN1, whole entry, looked up: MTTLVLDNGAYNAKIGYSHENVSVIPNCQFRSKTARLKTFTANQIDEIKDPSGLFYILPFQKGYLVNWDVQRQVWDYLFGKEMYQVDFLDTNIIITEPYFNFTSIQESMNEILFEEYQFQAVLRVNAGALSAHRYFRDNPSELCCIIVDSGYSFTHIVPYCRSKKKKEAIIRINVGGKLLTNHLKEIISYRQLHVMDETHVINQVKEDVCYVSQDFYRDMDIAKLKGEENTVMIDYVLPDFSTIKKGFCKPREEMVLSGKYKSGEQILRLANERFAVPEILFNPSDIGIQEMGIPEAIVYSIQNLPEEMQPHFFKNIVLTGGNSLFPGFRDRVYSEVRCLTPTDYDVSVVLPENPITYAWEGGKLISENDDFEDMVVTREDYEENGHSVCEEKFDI
UniProt Q6ULP2: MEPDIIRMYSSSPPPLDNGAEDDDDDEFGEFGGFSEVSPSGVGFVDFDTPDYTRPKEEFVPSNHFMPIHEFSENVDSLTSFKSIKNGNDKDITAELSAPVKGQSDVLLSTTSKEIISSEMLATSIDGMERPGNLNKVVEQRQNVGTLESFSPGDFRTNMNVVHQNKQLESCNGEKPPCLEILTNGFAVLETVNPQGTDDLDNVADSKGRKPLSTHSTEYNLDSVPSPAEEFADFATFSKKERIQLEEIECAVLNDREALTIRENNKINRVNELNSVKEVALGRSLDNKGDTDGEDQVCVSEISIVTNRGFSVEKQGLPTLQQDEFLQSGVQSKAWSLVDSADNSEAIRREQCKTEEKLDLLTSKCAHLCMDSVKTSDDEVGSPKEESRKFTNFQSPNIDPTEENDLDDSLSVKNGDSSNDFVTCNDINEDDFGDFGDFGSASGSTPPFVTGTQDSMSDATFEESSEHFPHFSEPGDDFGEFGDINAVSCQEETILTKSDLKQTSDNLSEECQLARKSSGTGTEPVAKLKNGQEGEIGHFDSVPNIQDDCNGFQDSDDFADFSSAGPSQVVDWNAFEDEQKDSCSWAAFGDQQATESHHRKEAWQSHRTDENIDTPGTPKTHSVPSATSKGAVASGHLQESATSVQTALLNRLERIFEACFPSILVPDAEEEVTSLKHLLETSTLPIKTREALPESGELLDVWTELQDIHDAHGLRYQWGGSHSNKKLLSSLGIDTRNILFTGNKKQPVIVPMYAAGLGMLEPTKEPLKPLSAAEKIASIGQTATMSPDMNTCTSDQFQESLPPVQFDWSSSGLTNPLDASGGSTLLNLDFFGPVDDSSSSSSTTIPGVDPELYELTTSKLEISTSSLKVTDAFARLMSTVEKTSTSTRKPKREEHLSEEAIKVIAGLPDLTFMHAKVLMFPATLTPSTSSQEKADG
UniProt P55196: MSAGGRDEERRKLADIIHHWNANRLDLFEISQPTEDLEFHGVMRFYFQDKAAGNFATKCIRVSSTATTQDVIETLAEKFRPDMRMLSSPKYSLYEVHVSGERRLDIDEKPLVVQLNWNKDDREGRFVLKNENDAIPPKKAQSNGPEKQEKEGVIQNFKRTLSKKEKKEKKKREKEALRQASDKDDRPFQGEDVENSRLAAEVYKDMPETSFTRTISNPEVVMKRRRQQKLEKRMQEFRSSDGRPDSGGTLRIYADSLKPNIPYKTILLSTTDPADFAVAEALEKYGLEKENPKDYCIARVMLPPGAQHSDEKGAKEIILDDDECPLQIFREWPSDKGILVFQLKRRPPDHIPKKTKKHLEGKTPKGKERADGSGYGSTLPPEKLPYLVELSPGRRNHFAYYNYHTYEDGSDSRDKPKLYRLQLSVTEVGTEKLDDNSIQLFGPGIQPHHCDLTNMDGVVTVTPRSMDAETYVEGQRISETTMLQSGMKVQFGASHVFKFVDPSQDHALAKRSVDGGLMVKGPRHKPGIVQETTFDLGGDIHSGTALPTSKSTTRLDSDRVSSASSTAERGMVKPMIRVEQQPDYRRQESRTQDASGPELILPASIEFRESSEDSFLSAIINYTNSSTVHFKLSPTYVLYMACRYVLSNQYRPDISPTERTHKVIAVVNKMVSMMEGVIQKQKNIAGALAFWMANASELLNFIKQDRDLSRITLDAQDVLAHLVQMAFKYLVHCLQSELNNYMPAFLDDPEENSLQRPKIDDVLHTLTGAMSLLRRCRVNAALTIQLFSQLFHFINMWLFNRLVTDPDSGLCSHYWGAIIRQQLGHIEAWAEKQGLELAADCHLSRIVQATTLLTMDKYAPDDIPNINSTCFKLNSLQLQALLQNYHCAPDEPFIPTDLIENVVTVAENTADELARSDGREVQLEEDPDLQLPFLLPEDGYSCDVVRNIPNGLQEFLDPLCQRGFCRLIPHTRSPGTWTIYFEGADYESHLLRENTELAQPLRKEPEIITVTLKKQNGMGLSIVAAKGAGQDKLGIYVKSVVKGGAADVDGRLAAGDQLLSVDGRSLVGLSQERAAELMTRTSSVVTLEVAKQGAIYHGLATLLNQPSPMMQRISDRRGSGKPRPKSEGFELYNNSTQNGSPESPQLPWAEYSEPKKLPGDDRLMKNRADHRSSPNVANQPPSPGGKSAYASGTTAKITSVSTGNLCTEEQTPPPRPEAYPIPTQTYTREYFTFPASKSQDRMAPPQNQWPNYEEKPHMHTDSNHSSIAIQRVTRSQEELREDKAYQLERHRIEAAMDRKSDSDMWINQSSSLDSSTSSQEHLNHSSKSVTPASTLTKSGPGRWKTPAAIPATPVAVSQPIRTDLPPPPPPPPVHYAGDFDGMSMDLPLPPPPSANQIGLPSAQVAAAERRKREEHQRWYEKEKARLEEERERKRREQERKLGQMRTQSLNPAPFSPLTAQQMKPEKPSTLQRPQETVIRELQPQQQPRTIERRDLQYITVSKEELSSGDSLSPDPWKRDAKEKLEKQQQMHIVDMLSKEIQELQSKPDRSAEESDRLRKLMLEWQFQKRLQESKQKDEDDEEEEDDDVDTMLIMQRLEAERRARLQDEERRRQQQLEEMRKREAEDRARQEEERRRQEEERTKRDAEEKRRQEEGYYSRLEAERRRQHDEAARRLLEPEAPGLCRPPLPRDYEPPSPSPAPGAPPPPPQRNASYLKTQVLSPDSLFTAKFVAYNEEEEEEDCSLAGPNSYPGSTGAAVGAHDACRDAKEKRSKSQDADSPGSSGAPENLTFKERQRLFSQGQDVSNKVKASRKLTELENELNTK

Key:
Assay in all cases: log2 fold change, soluble protein after heating vs DMSO (PISA); higher = thermal stabilisation; K562 lysate, 10 uM; active = over 0.2 and 3.5 SD of the protein, either way, in both replicates (recomputed)
vemurafenib = compound: CCCS(=O)(=O)Nc1ccc(F)c(C(=O)c2c[nH]c3ncc(-c4ccc(Cl)cc4)cc23)c1F [vemurafenib]
Outline: (§1)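 Soluble protein was defined as the supernatant remaining after 21,000xg for 90 min, following pooling of heated aliquots and adjustment to 0.5% NP-40 at 4°C. Before that, crude K562 extract at 1 mg/mL protein in PBS pH 7.4 with 1 mM MgCl2 was treated with 10 μM compound for 30 min and heated for 3 min across 48°C-58°C. Quantification used TMTpro 16plex LC-MS/MS with channel sums equalised, and values are log-two fold changes in thermal stability relative to solvent controls from duplicates.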

[1] = compound: CCCS(=O)(=O)Nc1ccc(F)c(C(=O)c2c[nH]c3ncc(Cl)cc23)c1F
Outline: as §1

barasertib = compound: CCN(CCCOc1ccc2c(Nc3cc(CC(=O)Nc4cccc(F)c4)[nH]n3)ncnc2c1)CCOP(=O)(O)O [barasertib]
Outline: as §1

[2] = compound: CC[C@@H]1C(=O)N(C)c2cnc(Nc3ccc(C(=O)NC4CCN(C)CC4)cc3OC)nc2N1C1CCCC1
Outline: as §1

volasertib = compound: CC[C@@H]1C(=O)N(C)c2cnc(Nc3ccc(C(=O)N[C@H]4CC[C@H](N5CCN(CC6CC6)CC5)CC4)cc3OC)nc2N1C(C)C [volasertib]
Outline: as §1

[3] = compound: CCn1c(C(=O)N(C2CC2)C2CC2)cc2c3c(ncn3C)c(Nc3cc(C)n(C)n3)nc21
Outline: as §1

[4] = compound: CCn1cc(-c2ccnc3[nH]c(-c4cccc(CN(C)C)c4)cc23)c(-c2ccc(NC(=O)N(C)C)cc2)n1
Outline: as §1

[5] = compound: CN1CCC(CNc2ccc3ncc(-c4cccc(OC(F)(F)F)c4)n3n2)CC1
Outline: as §1

saracatinib = compound: CN1CCN(CCOc2cc(OC3CCOCC3)c3c(Nc4c(Cl)ccc5c4OCO5)ncnc3c2)CC1 [saracatinib]
Outline: as §1

sotrastaurin = compound: CN1CCN(c2nc(C3=C(c4c[nH]c5ccccc45)C(=O)NC3=O)c3ccccc3n2)CC1 [sotrastaurin]
Outline: as §1

alvocidib = compound: CN1CC[C@H](c2c(O)cc(O)c3c(=O)cc(-c4ccccc4Cl)oc23)[C@H](O)C1 [alvocidib]
Outline: as §1

Tubastatin A = compound: CN1CCc2c(c3ccccc3n2Cc2ccc(C(=O)NO)cc2)C1 [Tubastatin A]
Outline: as §1

[6] = compound: CNC(=O)C1=CC=CC=C1NC2=NC(=NC=C2Cl)NC3=C(C=C(C=C3)N4CCOCC4)OC
Outline: as §1

defactinib = compound: CNC(=O)c1ccc(Nc2ncc(C(F)(F)F)c(NCc3nccnc3N(C)S(C)(=O)=O)n2)cc1 [defactinib]
Outline: as §1

[7] = compound: CNc1nc(-c2ccc3c(N)n[nH]c3c2)cc(N2C[C@@H](C(=O)NC3CCCCC3)CC[C@H]2C)n1
Outline: as §1

encorafenib = compound: COC(=O)N[C@@H](C)CNc1nccc(-c2cn(C(C)C)nc2-c2cc(Cl)cc(NS(C)(=O)=O)c2F)n1 [encorafenib]
Outline: as §1

[8] = compound: COC(=O)[C@H](CCSC)NC(=O)C1=C(C=C(C=C1)NC[C@H](CS)N)C2=CC=CC=C2
Outline: as §1

alisertib = compound: COc1cc(Nc2ncc3c(n2)-c2ccc(Cl)cc2C(c2c(F)cccc2OC)=NC3)ccc1C(=O)O [alisertib]
Outline: as §1

[9] = compound: COc1cc2nc(-c3cc(F)ccc3O)nc(N[C@@H]3CNC[C@H]3C(C)(C)O)c2cc1OC
Outline: as §1

gefitinib = compound: COc1cc2ncnc(Nc3ccc(F)c(Cl)c3)c2cc1OCCCN1CCOCC1 [gefitinib]
Outline: as §1

Measured: log2 fold change

AK2 (UniProt P54819)
inactive: vemurafenib 0.014 | [1] 0.062 | barasertib -0.013 | [2] 0.029 | volasertib 0.013 | [3] -0.009 | [4] 0.119 | [5] -0.008 | saracatinib -0.015 | sotrastaurin -0.038 | alvocidib -0.003 | Tubastatin A 0.05 | [6] -0.019 | defactinib 0.016 | [7] 0.033 | encorafenib -0.025 | [8] -0.018 | alisertib 0.008 | [9] -0.025 | gefitinib 0.019

AKAP8L (UniProt Q9ULX6)
inactive: vemurafenib -0.003 | [1] 0.033 | barasertib -0.066 | [2] -0.036 | volasertib -0.042 | [3] 0.019 | [4] -0.042 | [5] -0.01 | saracatinib 0.002 | sotrastaurin 0.013 | alvocidib -0.003 | Tubastatin A -0.183 | [6] 0.008 | defactinib 0.003 | [7] -0.109 | encorafenib 0.059 | [8] -0.032 | alisertib 0.043 | [9] 0.011 | gefitinib 0.009

ADD3 (UniProt Q9UEY8)
inactive: vemurafenib -0.008 | [1] 0.027 | barasertib -0.013 | [2] 0.046 | volasertib 0.022 | [3] -0.044 | [4] -0.045 | [5] 0.04 | saracatinib 0.012 | sotrastaurin 0.012 | alvocidib -0.015 | Tubastatin A 0.082 | [6] 0.018 | defactinib 0.02 | [7] 0.007 | encorafenib 0.017 | [8] -0.022 | alisertib -0.007 | [9] 0.004 | gefitinib 0.002

AIDA (UniProt Q96BJ3)
inactive: vemurafenib 0.097 | [1] 0.018 | barasertib -0.016 | [2] -0.048 | volasertib 0.011 | [3] -0.026 | [4] 0.092 | [5] 0.014 | saracatinib -0.024 | sotrastaurin -0.013 | alvocidib -0.011 | Tubastatin A 0.016 | [6] -0.022 | defactinib -0.02 | [7] 0.033 | encorafenib 0.001 | [8] 0 | alisertib 0.034 | [9] 0.008 | gefitinib 0.088

ACTR6 (UniProt Q9GZN1)
inactive: vemurafenib 0.09 | [1] 0.007 | barasertib -0.059 | [2] 0.029 | volasertib 0.047 | [3] -0.083 | [4] -0.221 | [5] 0.121 | saracatinib 0.047 | sotrastaurin 0.097 | alvocidib -0.064 | Tubastatin A -0.036 | [6] -0.074 | defactinib 0.072 | [7] -0.007 | encorafenib 0.022 | [8] 0.109 | alisertib 0.112 | [9] 0.047 | gefitinib 0.259

AFTPH isoform 9 (UniProt Q6ULP2)
inactive: vemurafenib -0.01 | [1] 0.041 | barasertib 0.064 | [2] 0.124 | volasertib 0.017 | [3] 0.1 | [4] 0.007 | [5] -0.029 | saracatinib -0.01 | sotrastaurin -0.01 | alvocidib 0.014 | Tubastatin A -0.011 | [6] -0.001 | defactinib -0.015 | [7] -0.014 | encorafenib 0.072 | [8] -0.026 | alisertib -0.029 | [9] -0.024 | gefitinib 0.011

ACTA1 (UniProt P68133)
inactive: vemurafenib 0.007 | [1] 0.011 | barasertib 0.006 | [2] 0.045 | volasertib -0.082 | [3] -0.03 | [4] 0.001 | [5] 0.006 | saracatinib 0.005 | sotrastaurin 0.011 | alvocidib 0.009 | Tubastatin A -0.023 | [6] -0.015 | defactinib -0.003 | [7] 0.004 | encorafenib -0.003 | [8] 0.04 | alisertib 0.017 | [9] -0.015 | gefitinib -0.033

AFDN isoform 1 (UniProt P55196)
inactive: vemurafenib 0.01 | [1] 0.012 | barasertib 0.005 | [2] -0.003 | volasertib -0.022 | [3] 0.014 | [4] 0.03 | [5] -0.061 | saracatinib 0.01 | sotrastaurin -0.004 | alvocidib 0.014 | Tubastatin A -0.039 | [6] 0 | defactinib -0.009 | [7] 0.012 | encorafenib 0.022 | [8] -0.022 | alisertib 0.005 | [9] -0.006 | gefitinib -0.031
